Assay results reported in patent US20030201224A1, “Microbial consortium for the biodegradation of dithiocarbamates” (priority 2002, published 2003).

Test system: consortium
Conditions: without consortium

CN(C)C(=S)[S-].[Na+] [SDM, Sodium dimethyl dithiocarbamate]
SDM, control (w/o consortium) (time 0 h): 959 mg/mL
SDM, control (w/o consortium) (time 48 h): 923 mg/mL
SDM, control (w/o consortium) (time 80 h): 871 mg/mL
SDM, control (w/o consortium) (time 120 h): 825 mg/mL
SDM, control (w/o consortium) (time 168 h): 812 mg/mL
SDM, control (w/o consortium) (time 312 h): 794 mg/mL

Like-named read-outs stand apart in the source and are kept apart here.
